Reference: PubChem BioAssay AID1259274 (Sanger Institute, 2017)

Assay: 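Kinases RKO cells need to grow, alone or with anchor drugs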 (primary screen)
Cells: human RKO colorectal cancer cells
Reagent: siRNA pool against human genes
Conditions: anchor drugs BYL719 at 1 µM, cetuximab at 5 µg/ml or trametinib at 10 nM; DMSO vehicle as the no-drug arm
Detection: 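Viability of cells versus control pool 2 (non-targeting) averaged across replicates; knock-down-only robust z-score; for every anchor drug (BYL719, cetuximab, trametinib) a synergy score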
Scale: viability z-score, siRNA alone: higher = more viable cells; low values mean essential gene
Call rule: 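a single knock-down scoring under -3 on the robust z-score, meaning fewer cells, counts as essential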
Meaning of the calls: active = essential when knocked down alone; inactive = no change alone
The whole screen tested 794 reagents; this is a part drawn at random. 11 of them (1.4%) were called active. 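Calls rest on knock-down without drug only; synergy scores with anchor drugs were not used for the essential call.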 A number with no mark means an inactive call. Not all columns of the deposit are shown. Not given: the amount of reagent, the time to read-out.

COASY (Coenzyme A synthase) → viability z-score, siRNA alone: -1.73
MAST2 (microtubule associated serine/threonine kinase 2) → viability z-score, siRNA alone: -0.599
CIT (citron rho-interacting serine/threonine kinase) → viability z-score, siRNA alone: -0.548
CAMK4 (calcium/calmodulin dependent protein kinase IV) → viability z-score, siRNA alone: 0.172
MARK2 (microtubule affinity regulating kinase 2) → viability z-score, siRNA alone: -0.931
TPD52L3 (TPD52 like 3) → viability z-score, siRNA alone: 1.05
DCLK1 (doublecortin like kinase 1) → viability z-score, siRNA alone: 0.19
SRGAP3 (SLIT-ROBO Rho GTPase activating protein 3) → viability z-score, siRNA alone: -0.155
DGKB (diacylglycerol kinase beta) → viability z-score, siRNA alone: -0.753
LIMK2 (LIM domain kinase 2) → viability z-score, siRNA alone: 0.435
PRKD3 (protein kinase D3) → viability z-score, siRNA alone: -0.701
BRD2 (bromodomain containing 2) → viability z-score, siRNA alone: 1.19
AKT2 (AKT serine/threonine kinase 2) → viability z-score, siRNA alone: 1.11
TCF12 (transcription factor 12) → viability z-score, siRNA alone: -0.672
PKN1 (protein kinase N1) → viability z-score, siRNA alone: 0.698
FOXP1 (forkhead box P1) → viability z-score, siRNA alone: -1.34
STK24 (serine/threonine kinase 24) → viability z-score, siRNA alone: -0.816
MARK1 (microtubule affinity regulating kinase 1) → viability z-score, siRNA alone: -1.51
ROCK2 (Rho associated coiled-coil containing protein kinase 2) → viability z-score, siRNA alone: 0.513
TNK1 (tyrosine kinase non receptor 1) → viability z-score, siRNA alone: 1.19
ARAF (A-Raf proto-oncogene, serine/threonine kinase) → viability z-score, siRNA alone: 1.19
PRP4K (pre-mRNA processing factor kinase PRP4K) → viability z-score, siRNA alone: -0.067
DYRK2 (dual specificity tyrosine phosphorylation regulated kinase 2) → viability z-score, siRNA alone: 0.783
TP53 (tumor protein p53) → viability z-score, siRNA alone: -0.235
DIS3 (DIS3 exosome endoribonuclease and 3'-5' exoribonuclease) → viability z-score, siRNA alone: -0.724
PRKD2 (protein kinase D2) → viability z-score, siRNA alone: -0.547
CDKL2 (cyclin dependent kinase like 2) → viability z-score, siRNA alone: 0.0385
DYRK1B → viability z-score, siRNA alone: 0.0583
PIK3R3 (phosphoinositide-3-kinase regulatory subunit 3) → viability z-score, siRNA alone: 0.443
PIK3CB → viability z-score, siRNA alone: -0.442
ABL2 (ABL proto-oncogene 2, non-receptor tyrosine kinase) → viability z-score, siRNA alone: -0.539
FBXW7 (F-box and WD repeat domain containing 7) → viability z-score, siRNA alone: 0.399
NME6 (NME/NM23 nucleoside diphosphate kinase 6) → viability z-score, siRNA alone: -0.314
MAPK15 (mitogen-activated protein kinase 15) → viability z-score, siRNA alone: -0.916
MAP2K2 (mitogen-activated protein kinase kinase 2) → viability z-score, siRNA alone: -0.393
PFKM (phosphofructokinase, muscle) → viability z-score, siRNA alone: 0.544

Reprinted from the listing (5 entries):
CDKL2 (cyclin dependent kinase like 2) → viability z-score, siRNA alone: 0.0385
DYRK1B → viability z-score, siRNA alone: 0.0583
PIK3R3 (phosphoinositide-3-kinase regulatory subunit 3) → viability z-score, siRNA alone: 0.443
PIK3CB → viability z-score, siRNA alone: -0.442
ABL2 (ABL proto-oncogene 2, non-receptor tyrosine kinase) → viability z-score, siRNA alone: -0.539
